Patent publication US8013137B2, “Modified enteropeptidase protein” (National University Corporation Hokkaido University, priority 2006, dated 2011)
At least one structure is not confirmed: it was looked up by name or label, or the drawing left a doubt. Starred links: 1 amine or outer side, 2 acyl side, 3 side chain; linkers in the order of their positions; H or OH if unused. Residues, ends and D or L forms follow the SMILES beside them. CO = O=C([*:1])[*:2]

Columns and labels:
medaka EP-1 protease = assay: Inhibitor assay, enzyme activity measured using GD4K-βNA as a substrate; assay type: biochemical, medaka (Oryzias latipes)
medaka EP-2 protease = assay: as above; assay type: biochemical, medaka (Oryzias latipes)

CC(C)[C@H](NC(=O)[C@H](CCCNC(=N)N)NC(=O)N[C@@H](Cc1ccccc1)C(=O)O)C(=O)N[C@H](C=O)CCCNC(=N)N [Antipain] ({Phe-CO}-Arg-Val-Arg-aldehyde)
Inhibition (%) EP-1 (medaka EP-1 protease): 18% | Inhibition (%) EP-2 (medaka EP-2 protease): 20%
